Measurements from patent US6013764 (dated 2000).

Experiment: general procedure: solution-phase peptide synthesis; DIC/HOBt; HBTU/HOBt; HBTU/HOOBt; DIC/HOOBt
Details: for crude HPLC purity / final HPLC purity: HPLC area %
[1] = late stage modification step, TFA salt

(Lys-Leu4)4 -Lys
crude HPLC purity (late stage modification step, run 1): 81.8% | crude HPLC purity (late stage modification step, run 2): 80.5%

AC-D-Nal-D-pCal-D-3-Pal-L-Ser(OH)-OH
final HPLC purity (late stage modification step): 95%

Boc-(Lys(Z)-Leu4)4 Lys(Z)-OBzl
crude HPLC purity (coupling step): 92%

Boc-K(Cbz)LLLLK(Cbz)LL-OH
step yield (late stage modification step): 98% | crude HPLC purity (late stage modification step): 91.4%

Boc-K(Cbz)LLLLK(Cbz)LL-OMe
crude HPLC purity (coupling step): 94%

Boc-LL-K(Z)LLLLK(Z)-LLLLK(Z)-OBzl
final HPLC purity (coupling step): 93.0%

Boc-LLK(Cbz)LLLLK(Cbz)LLLLK(Cbz)LLLLK(Cbz)-OBn
step yield (coupling step): 89%

H-LLK(Z)-LLLLK(Z)-OBzl.cndot.TFA
crude HPLC purity [1]: 97%

H-LLK(Z)LLLLK(Z)-LLLLK(Z)-OBzl.cndot.HCl
step yield (late stage modification step, HCl salt): 95%

H-LLK(Z)LLLLK(Z)LLLLK(Z)-LLLLK(Z)-OBzl.cndot.TFA
crude HPLC purity [1]: 88.2%

H-Leu-Leu-Lys(Z)-Leu-Leu-OMe.cndot.HCl
crude HPLC purity (late stage modification step): 99.2%

Z-K(Z)LLLLK(Z)LLLLK(Z)LLLLK(Z)-LLLLK(Z)-OBzl
step yield (coupling step): 92% | final HPLC purity (coupling step): 90%

The star is where a group is joined. Cbz = O=C(OCc1ccccc1)*; Boc = CC(C)(C)OC(=O)*; OBn = c1ccc(CO*)cc1
